Where two headings read alike, the source gives them in different places. No constants are given. Whether binding was seen depends on the method and setting. Some binding calls cover weakened binding; strength is not graded here.
Experiments:
[1] = biological target: active human TNF-α full length protein (Abcam) (human) (UniProt P01375); assay: ELISA on coated TNF-α
[2] = biological target: active human TNF-α full length protein (Abcam) (human) (UniProt P01375)
[3] = biological target: active human TNF-α full length protein (Abcam) (human) (UniProt P01375); remark: listed apart in the source
[4] = biological target: active human TNF-α full length protein (Abcam) (human) (UniProt P01375); assay: ELISA on coated TNF-α, four 10-fold dilutions of sdAb starting at 1 µg/mL

The chains behind the UniProt entries cited, without tags or fusion partners. Residues count along the entry.
UniProt P01375, residues 77-233: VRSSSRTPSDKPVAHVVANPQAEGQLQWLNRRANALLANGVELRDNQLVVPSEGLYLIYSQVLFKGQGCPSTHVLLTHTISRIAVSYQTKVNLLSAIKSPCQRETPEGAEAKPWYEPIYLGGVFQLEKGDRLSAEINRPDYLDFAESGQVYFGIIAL

Measured: binding

B1: anti-TNF-α VHH69 (SEQ ID NO:46) sdAb (VHH)
VHH: EVQLVESGGGSVLAGGSLRLSCVASGFTSRYNYMAWFRQAPGKEREGVATIGTASGSADYYGSVKDRFTISQDNAKNTVYLQMNSLKPEDTAMYYCAARTYGTISLTPSDYRYWGQGTLVTVSS
binds: [1] | [2] | [3] | [4]
